# In the supplement of paper PMC10338343:
# ± gives the standard deviation. The entries are a selection whose mix differs from that of the whole data set. Many of these values have a large error. This is one part of the list.
# Key:
# [1] = system: MILI (PIWIL2) piRISC loaded with L1MC piRNA (26 nt); assay: pre-steady-state target cleavage rate (min^-1); higher = faster piRNA-guided slicing of the target; conditions: guide: L1MC piRNA 5'p-UAACUAAAUACUAUGCAAGCUGUAGG
# Summary of the method: (§1)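 Cleave-'n-Seq used a transcribed, DNA-blocked target RNA library at 0.1 nM and active affinity-purified piRISC with one synthetic guide at 1 nM, with or without 500 nM GTSF1 partner protein, in HEPES–potassium acetate buffer at 33 °C for 0–8 or 0–960 min. Uncleaved targets were sequenced and normalised to depth and to weakly complementary targets, and three trials were pooled with k3 capped at 0.0001 min^-1. The pre-steady-state cleavage rate was estimated by a burst-and-steady-state fit.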
# [2] = system: EfPiwi piRISC loaded with L1MC piRNA (26 nt); assay: pre-steady-state target cleavage rate (min^-1); guide: L1MC piRNA 5'p-UAACUAAAUACUAUGCAAGCUGUAGG; MIWI and MILI are mouse PIWI proteins and EfPiwi is from a freshwater sponge; tags in brackets are library labels; higher = faster piRNA-guided slicing of the target
# Summary of the method: as §1
# [3] = auxiliary factor: none (no GTSF1)
# [4] = auxiliary factor: none (no Gtsf1)
# [5] = auxiliary factor: 500 nM Ephydatia muelleri Gtsf1
# [6] = auxiliary factor: 500 nM mouse GTSF1
Sequence,"pre-steady-state target cleavage rate [1, 3]","pre-steady-state target cleavage rate [2, 4]","pre-steady-state target cleavage rate [2, 5]","pre-steady-state target cleavage rate [1, 6]"
UCCUCCUACAGCUUGCAUAGUAUAUAGAUA,0.00135 ± 0.0044,0.000554 ± 0.0096,,
UCCUGGUACAGCUUGCAUACUAUUUACUUA,0.00287 ± 0.0037,,0.00126 ± 0.006,
UCCUGGAACAGCUUGCUUAGAAUUUAGUUA,0.0014 ± 0.0035,,0.00161 ± 0.0026,
UCCUGGAUGUCGAACCUAUGUAUUUAGUUA,0.000455 ± 0.0084,,0.000177 ± 0.027,
UCCUGGAUGUCCUUGCAUAAUAUUUAGUUA,0.00224 ± 0.0033,,0.00161 ± 0.0028,
UCCUGGAUCAGCUUGGAUAGAAUUUAGUUA,0.00143 ± 0.0038,,0.000762 ± 0.0046,
UCCUGGAUGUCGAUGCAUACUAUUUACUUA,0.000158 ± 0.029,,0.000201 ± 0.014,
UCCUGGAACAGCUUGCAUACUAUUUAGUAA,0.00156 ± 0.0039,,0.00398 ± 0.0022,
UCCUGGAUGAGCUUGCAUACUAUAUAGUUA,0.000903 ± 0.0089,,0.000844 ± 0.0061,
UCCUGGAUCAGCUUGCAUAGUAUUUAGUCUA,0.00167 ± 0.0047,,0.00289 ± 0.0027,
UCCUGCUAACAGCUUGCAUAGUAUUUAGUUA,,,0.0114 ± 0.0038,0.307 ± 0.033
UCCUGGAUGAGCUACCAUAGUAUUUACAAA,0.000429 ± 0.012,,0.000168 ± 0.029,
UCCUGGAACUGCUUGCAUAGAAUUUAGUUA,0.00212 ± 0.0032,,0.00158 ± 0.0031,
UCCUCCUACAGCUUGCAUAGUAUAUACUUA,0.0015 ± 0.0038,,0.00304 ± 0.0025,
UCCUGGAUGUGCUUGCAUAGUAUUUUCUUA,0.000693 ± 0.008,,0.00171 ± 0.0036,
UCCUGCUACAGCUUCCAUAGUAUUUAGUUA,0.0015 ± 0.0037,0.000105 ± 0.027,,
UCCUCCUACUCCUUGCAUAGUAUUUAGAAA,0.00117 ± 0.004,,0.00457 ± 0.0022,
UCCUCCUACACCUUGCAUAGUAUUUAGAUA,0.00132 ± 0.0052,,0.004 ± 0.0023,
UCCUGCUACAGCAUGCAUAGUAUAUAGUUA,,,0.00599 ± 0.0029,0.284 ± 0.03
UCCUGGUACAGCUUGCAUAGUAUUUAGAAA,0.00238 ± 0.0029,,0.00435 ± 0.0017,
UCCUGGAUGAGCUUGCAUAGUAUUUAGAAA,0.00208 ± 0.0032,,0.00648 ± 0.0025,
UCCUGGUACAGCUUGCAUAGUAUUUCGUUA,0.00216 ± 0.0048,,0.00191 ± 0.0039,
UCCUGGAUCAGCUUUGCAUAGUAUUUAGUUA,,,0.103 ± 0.023,0.297 ± 0.016
UCCUGGUACAGCAUGCAUAGUAUUUAGAAA,0.00258 ± 0.0032,0.000325 ± 0.026,,
UCCUGGAACAGCUUGGAUAGUAUUUAGAAA,0.00193 ± 0.0029,,0.00373 ± 0.0019,

Sequence,"pre-steady-state target cleavage rate [1, 3]","pre-steady-state target cleavage rate [2, 4]","pre-steady-state target cleavage rate [2, 5]","pre-steady-state target cleavage rate [1, 6]"
UCCUGGAUGAGCUUGCAUAGUAUUUUCAAA,0.00109 ± 0.0074,,0.00209 ± 0.0024,
UCCUGGUACAGGUUGCAUAGAAUUUAGUUA,0.00238 ± 0.0042,0.000559 ± 0.017,,
UCCUGGAUCAGCUUGCAUAGUAAUUUGUUA,0.00163 ± 0.0051,,0.00366 ± 0.002,
UCCUGCUAGAGCUUGCAUAGAAUUUAGUUA,0.00209 ± 0.0029,,0.0043 ± 0.0014,
UCCUGGAUGUGCUAGCAUAGUAUUUACUUA,0.00225 ± 0.0034,,0.00228 ± 0.0047,
UCCUCCUACAGCUUGCAUAGUAUUUAGUUUA,,,0.145 ± 0.039,0.333 ± 0.019
UCCUGGAUGUCGAACCACUAGUAUUUAGUUA,0.000394 ± 0.011,,0.00022 ± 0.028,
UCCUCCUACAGCUUGCAUAGUAUUAUCAAA,0.00149 ± 0.0048,,0.00273 ± 0.0027,
UCCUGGAUGUCCUUGCAUAGCAUUUAGUUA,0.00178 ± 0.0035,,0.000907 ± 0.0029,
UCCUGCUACAGCUUGCAUAGAAUUUAGAUA,0.00074 ± 0.0091,0.000504 ± 0.011,,
UCCUGCUACAGCUUGCAUAGUAUUUUGUAA,0.00176 ± 0.004,,0.00356 ± 0.0022,
UCCUGGAUCGCUUGCAUAGUAUUUAGUUA,,,0.065 ± 0.011,0.29 ± 0.012
UCCUGGUACAGCUUGCAUAGUAUUUAGCUUA,0.00177 ± 0.0057,0.000922 ± 0.011,,
UCCUGGAUGUCGAUGCAUCAGUAUUUAGUUA,0.000455 ± 0.012,< 0.0001,,
UCCUGGAACAGCUUGCAUAGUAUUUUCAUA,0.000762 ± 0.0087,0.00022 ± 0.04,,
UCCUCCUACAGUUUGCAUAGUAUUUAGUUA,,,0.0845 ± 0.021,0.299 ± 0.013
UCCUCCUACAGCUUGCAUAGUAUUUAGUUC [g2:g26:cont:t1C],,,0.146 ± 0.035,0.283 ± 0.016
UCCUGGUACACCUUGCAUAGAAUUUAGUUA,0.00126 ± 0.007,,0.00141 ± 0.0036,
UCCUGCUCACAGCUUGCAUAGUAUUUAGUUA,,,0.072 ± 0.016,0.351 ± 0.019
UCCUGGAUGUCGAACGAAAGUUUUUAGUUA,,< 0.0001,,0.000179 ± 0.043
UCCUGGAUCACCUUGCAUAGAAUUUAGUUA,0.00229 ± 0.0031,,0.00179 ± 0.005,
UCCUGGAUGUCCUUGCAUAGUAUUUAGCUUA,0.00197 ± 0.0044,,0.0051 ± 0.0028,
UCCUGGAACAGCUUCCAUAGUAUUUAGUUA,0.00119 ± 0.0043,0.000551 ± 0.011,,
UCCUGGAUCAGCUUGCAUAGUAUUUAGUUU [g2:g22:cont:t1U],,,0.121 ± 0.025,0.357 ± 0.019
UCCUGCUACAGCUUGCAUACGUAUUUAGUUA,0.00103 ± 0.0078,,0.00225 ± 0.0022,

# 2 records picked at random from the list so far, as already listed:
Sequence,"pre-steady-state target cleavage rate [1, 3]","pre-steady-state target cleavage rate [2, 4]","pre-steady-state target cleavage rate [2, 5]","pre-steady-state target cleavage rate [1, 6]"
UCCUGGAACAGCUUGCAUACUAUUUAGUAA,0.00156 ± 0.0039,,0.00398 ± 0.0022,
UCCUGCUACAGCUUCCAUAGUAUUUAGUUA,0.0015 ± 0.0037,0.000105 ± 0.027,,
